Results published in US5597803A, “Bradykinin peptides with modifications at the N terminus” (Hoechst Aktiengesellschaft, priority 1992, dated 1997).
Not every detail of the peptide structures is certain; ends, links or a residue may be inferred.

Columns and labels:
[1] = system: carrageenan-induced edema of the rat paw; experiment: carrageenan-induced edema of the rat paw, systemic administration; assay type: in vivo; settings: 15 min before carrageenan, male Sprague-Dawley rats, mean and standard deviation
Procedure: Antiinflammatory effect after systemic administration: carrageenan-induced edema of the rat paw
The test chosen for the acute systemic antiinflammatory effect is the carrageenan-induced edema of the rat paw by the method described by Winter C. A. et al., Proc. Soc. Exp. Biol. (N.Y.), 111, 544 (1962). Male Sprague-Dawley rats weighing about 170 g in groups of 5 animals receive the substances to be tested subcutaneously dissolved in distilled water (1 ml/kg bodyweight). 15 min later, after measurement of the initial volume of the paw, 0.1 ml of 0.5% strength carrageenan solution is injected under ether anesthesia into the left rear paw. The increase in volume of the swelling is measured 3 and 6 h later, Controls receive only the vehicle. The paw volume is reported in ml (mean and standard deviation).

[2] = biological target: T1, isolated guinea pig pulmonary artery (Cavia porcellus, UniProt O70526); experiment: duration of action (T50) on the isolated pulmonary artery after replacement of the peptide-containing buffer; assay type: cell-based; settings: time until strips again reach maximum sensitivity to 2×10^-7 mol/l bradykinin after washout; measure of duration of action; found by calculation
T1 sequence (O70526 1-372): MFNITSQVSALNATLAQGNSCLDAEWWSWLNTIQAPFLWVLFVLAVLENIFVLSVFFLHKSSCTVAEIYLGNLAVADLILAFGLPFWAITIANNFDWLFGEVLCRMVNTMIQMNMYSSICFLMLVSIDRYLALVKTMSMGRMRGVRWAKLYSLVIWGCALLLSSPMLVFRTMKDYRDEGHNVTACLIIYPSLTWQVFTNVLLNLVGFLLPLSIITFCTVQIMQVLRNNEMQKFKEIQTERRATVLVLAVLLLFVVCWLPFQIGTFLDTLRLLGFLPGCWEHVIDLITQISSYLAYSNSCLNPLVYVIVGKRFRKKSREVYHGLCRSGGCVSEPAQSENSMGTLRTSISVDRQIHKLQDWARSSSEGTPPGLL
Procedure: To test the peptides according to the invention on the isolated pulmonary artery, guinea pigs (Dunkin Hartley) weighing 400-450 g are sacrificed by a blow to the back of the neck. The thorax is opened and the pulmonary artery is carefully dissected out. The surrounding tissue is cautiously removed and the pulmonary artery is cut open in a spiral at an angle of 45°. The strip of vessel 2.5 cm long and 3-4 mm wide is fixed in an organ bath which has a capacity of 10 ml and is filled with Ringer solution.
95% O2 and 5% CO2 is bubbled through the solution, which is heated to 37° C. The pH is 7.4 and the preload on the strip of vessel is 1.0 g.
The isometric contraction changes are detected using a lever attachment and an HF modem (position sensor) from Hugo Sachs and are recorded on a potentiometric recorder (BEC, Goerz Metrawatt SE 460).
The experiment is started after equilibration for 1 hour. After the strips of vessel have reached their maximum sensitivity to 2×10^-7 mol/1 bradykinin--bradykinin leads to contraction of the strips of vessel--the peptides are left to act in doses of 5×10^-8 -1×10^-5 mol/l for 10 minutes each and, after renewed addition of bradykinin, the decrease in the effect of bradykinin is compared with the control.
For some selected compounds, the time until the strips of vessel have again reached their maximum sensitivity to 2×10^-7 mol/l bradykinin after replacement of the peptide-containing by a "simple" buffer was also determined in the experimental arrangement described above. This time is called T50 and is a measure of the duration of action.

SMILES	Increase in paw volume after 3 h ([1]; 0.1 mg/kg subcutaneously) [mL]	Increase in paw volume after 6 h ([1]; 0.1 mg/kg subcutaneously) [mL]	Increase in paw volume after 3 h ([1]; 1.0 mg/kg subcutaneously) [mL]	Increase in paw volume after 6 h ([1]; 1.0 mg/kg subcutaneously) [mL]	T50 (pulmonary artery) [2] [min]
N=C(N)NCCC[C@H](NC(=O)[C@@H]1C[C@@H]2CCCC[C@@H]2N1C(=O)[C@H]1Cc2ccccc2CN1C(=O)[C@H](CO)NC(=O)[C@H](Cc1cccs1)NC(=O)CNC(=O)[C@@H]1C[C@@H](O)CN1C(=O)[C@@H]1CCCN1C(=O)[C@H](CCCNC(=N)N)NC(=O)[C@@H](CCCNC(=N)N)NC(=O)OCC1c2ccccc2-c2ccccc21)C(=O)O [Example 1, Fmoc-D-Arg-Arg-Pro-Hyp-Gly-Thia-Ser-D-Tic-Oic-Arg-OH]	0.13 ± 0.06	0.14 ± 0.05	0.11 ± 0.05	0.08 ± 0.01	143.3
N=C(N)NCCC[C@H](NC(=O)[C@@H]1C[C@@H]2CCCC[C@@H]2N1C(=O)[C@H]1Cc2ccccc2CN1C(=O)[C@H](CO)NC(=O)[C@H](Cc1cccs1)NC(=O)CNC(=O)[C@@H]1C[C@@H](O)CN1C(=O)[C@@H]1CCCN1C(=O)[C@H](CCCNC(=N)N)NC(=O)[C@@H](CCCNC(=N)N)NC(=O)C(Cc1ccccc1)Cc1ccccc1)C(=O)O [Example 3, Dibenzylacetyl -D-Arg-Arg-Pro-Hyp-Gly-Thia-Ser-D-Tic-Oic-Arg-OH]	0.19 ± 0.07	0.22 ± 0.14			67.3
N=C(N)NCCC[C@H](NC(=O)[C@@H]1C[C@@H]2CCCC[C@@H]2N1C(=O)[C@H]1Cc2ccccc2CN1C(=O)[C@H](CO)NC(=O)[C@H](Cc1cccs1)NC(=O)CNC(=O)[C@@H]1C[C@@H](O)CN1C(=O)[C@@H]1CCCN1C(=O)[C@H](CCCNC(=N)N)NC(=O)[C@@H](CCCNC(=N)N)NC(=O)C1CCCCC1)C(=O)O [Example 4, Cyclohexylcarbonyl-D-Arg-Arg-Pro-Hyp-Gly-Thia-Ser-D-Tic-Oic-Arg-OH]	0.17 ± 0.08	0.31 ± 0.10			76.7
N=C(N)NCCC[C@H](NC(=O)[C@@H]1C[C@@H]2CCCC[C@@H]2N1C(=O)[C@H]1Cc2ccccc2CN1C(=O)[C@H](CO)NC(=O)[C@H](Cc1cccs1)NC(=O)CNC(=O)[C@@H]1C[C@@H](O)CN1C(=O)[C@@H]1CCCN1C(=O)[C@H](CCCNC(=N)N)NC(=O)[C@@H](CCCNC(=N)N)NC(=O)CCCCCNC(=O)OCC1c2ccccc2-c2ccccc21)C(=O)O [Example 5, Fmoc-ε-aminohexanoyl-D-Arg-Arg-Pro-Hyp-Gly-Thia-Ser-D-Tic-Oic-Arg- OH]	0.18 ± 0.04	0.20 ± 0.06	0.13 ± 0.03	0.17 ± 0.06	314.4
N=C(N)NCCC[C@H](NC(=O)[C@@H]1C[C@@H]2CCCC[C@@H]2N1C(=O)[C@H]1Cc2ccccc2CN1C(=O)[C@H](CO)NC(=O)[C@H](Cc1cccs1)NC(=O)CNC(=O)[C@@H]1C[C@@H](O)CN1C(=O)[C@@H]1CCCN1C(=O)[C@H](CCCNC(=N)N)NC(=O)[C@@H](CCCNC(=N)N)NC(=O)CN(Cc1ccccc1)Cc1ccccc1)C(=O)O [Example 6, N, N-Dibenzyl-glycyl-D-Arg-Arg-Pro-Hyp-Gly-Thia-Ser-D-Tic-Oic-Arg-OH]	0.31 ± 0.06	0.40 ± 0.11			
